Reference: patent US9676822B2, “Oligopeptidic compounds and uses thereof” (APIM THERAPEUTICS AS, priority 2008, dated 2017)

System: HeLa cells
Assay: Cellular import and localisation of tag-labelled peptides by confocal microscopy
Type: cell-based
Details: fluorescent-tagged peptide incubated with HeLa cells

Substance | Localization
MDRWLVKRIWKKKRKIIRQIKIWFQNRRMKWKK-Ahx5-FAM)G (Ahx5-FAM label, G; MDR26-8) | nucleus
MDRWLVKWKKKRKIRRRRRRRRRRRK-FAM)G (FAM label, G; MDR26-72) | nucleus
